Measurements taken from article PMC7819943, “Rice protein-binding microarrays: a tool to detect cis-acting elements near promoter regions in rice”.
This is one part of the list.

These sequences were tested against T1, OsSMF1 (Oryza sativa, UniProt Q6ZLB0 1-436) (assay: protein-binding microarray (RPBM); PBS, 2% BSA, 51.3 ng/ul salmon testes DNA, 50 uM zinc acetate, 200 nM TF, 25 C, 1 h; high values mean tight binding). Details: protein: recombinant; tags: N-terminal polyhistidine and DsRed monomer fusion (pET32a); chain copies: 2; label: CyDye5-dUTP incorporated in the synthesized complementary strand; 3' TTTTT single-stranded linker to array surface; dsDNA, one strand shown.
T1 sequence: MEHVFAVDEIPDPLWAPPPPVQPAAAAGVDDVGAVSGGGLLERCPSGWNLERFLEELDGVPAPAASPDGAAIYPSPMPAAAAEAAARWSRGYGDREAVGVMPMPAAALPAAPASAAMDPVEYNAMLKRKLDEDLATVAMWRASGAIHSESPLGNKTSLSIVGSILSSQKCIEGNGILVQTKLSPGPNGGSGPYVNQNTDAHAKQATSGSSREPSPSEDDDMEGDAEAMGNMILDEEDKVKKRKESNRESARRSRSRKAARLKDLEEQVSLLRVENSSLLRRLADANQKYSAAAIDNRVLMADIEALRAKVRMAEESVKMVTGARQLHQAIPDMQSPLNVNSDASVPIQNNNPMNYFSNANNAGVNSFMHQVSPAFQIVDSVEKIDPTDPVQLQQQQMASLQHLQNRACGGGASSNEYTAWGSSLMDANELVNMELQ
Outline: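 An Axon 4000B scanner gave the binding signal as per-feature fluorescence intensity in arbitrary units. This followed washing of a custom Agilent array that had been incubated for 1 h at 25 °C with 200 nM protein in PBS, 2% BSA, salmon testes DNA and 50 µM zinc acetate. The proteins were transcription factors fused at the N-terminus to polyhistidine and DsRed, expressed in E. coli BL21-CodonPlus and purified on Ni–NTA.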
With “GGAGTTAGTTCGGAGGTGATTATGGGGTGACGTATATTTTCGGAGTCACCTAGTGCAG” the binding signal was 4370 fluorescence intensity (a.u.).
For “GTAAGTACACGATCGATCACCTCGCCGCCGCCGCCGCCGCCGGAGTCACCTAGTGCAG”, the binding signal was 3830 fluorescence intensity (a.u.).
“ACGCTGCTCCATACAAGCGAGCGCGACTTTGAGGTCGCCACGGAGTCACCTAGTGCAG” was tested, and the binding signal was 3360 fluorescence intensity (a.u.).
“ACTCCCGGTCCCATGTCACCGACACATGTACATCTCAGCACGGAGTCACCTAGTGCAG” was tested, and the binding signal was 4500 fluorescence intensity (a.u.).
With “TCGGCAGCGTTCGCGAGCGGATAAGGAGTGGCGGTGGTGGCGGAGTCACCTAGTGCAG” the binding signal was 3340 fluorescence intensity (a.u.).
With “TTCCTCGCCAACGTAAGCCAATAACATTGTGACGCAATCTCGGAGTCACCTAGTGCAG” the binding signal was 5820 fluorescence intensity (a.u.).
For “CCTGCATCTCCATCATTTAGTGCGTGGAATGCTTCTCCAGCGGAGTCACCTAGTGCAG”, the binding signal was 3520 fluorescence intensity (a.u.).
In the case of “CGCTCGCTAGTGGTGGAGGCAGGCAAGACACGTCACTAGCCGGAGTCACCTAGTGCAG”, the binding signal is reported as 19400 fluorescence intensity (a.u.).
For “TCTAGCATTGCCCAAATTCATATTCATTAACATATATATGCGGAGTCACCTAGTGCAG”, the binding signal was 3930 fluorescence intensity (a.u.).
For “CGCGTGGAGCTCACGGATGGGCCACACGTGGACGGTCGAGCGGAGTCACCTAGTGCAG”, the binding signal was 6700 fluorescence intensity (a.u.).
“GGCAGATATTAGATAGAATGAAAGTTGGGGAATCAATCAGCGGAGTCACCTAGTGCAG” was tested, and the binding signal was 3300 fluorescence intensity (a.u.).
In the case of “TGAAGAGCCTTAGTCATAGTTGTACCGTAGTATTATTTGTCGGAGTCACCTAGTGCAG”, the binding signal is reported as 3840 fluorescence intensity (a.u.).
In the case of “CCCACGCCGCGGGGCCACGCTTCGTTACGCCCGCTCATATCGGAGTCACCTAGTGCAG”, the binding signal is reported as 4420 fluorescence intensity (a.u.).
“GATGATGATGATGATGATGATGAGAAGGTGGTGCCGCCGCCGGAGTCACCTAGTGCAG” was tested, and the binding signal was 4280 fluorescence intensity (a.u.).
With “TCACCCTCTCCTATTCTCTCTCTTCGCCACGCTCTCATCCCGGAGTCACCTAGTGCAG” the binding signal was 3830 fluorescence intensity (a.u.).
With “ATTATACAGATTACGTGTAAATTGCGAGACGAATCTTTCACGGAGTCACCTAGTGCAG” the binding signal was 4060 fluorescence intensity (a.u.).
For “GAAACTCGTGGCTGCACTTATTTTAGAACGAAGGGAGTAGCGGAGTCACCTAGTGCAG”, the binding signal was 6360 fluorescence intensity (a.u.).
For “TTGCTATGGCCGCGAGGTTGCTTACTCATGGAGGAAAGCTCGGAGTCACCTAGTGCAG”, the binding signal was 4430 fluorescence intensity (a.u.).
“TTCTTCCGCGCCGACCTCTCCGTCCGCCCCGTCGACGAGTCGGAGTCACCTAGTGCAG” was tested, and the binding signal was 3490 fluorescence intensity (a.u.).
“AATCCTCCGCCATTCCCCGCATAGCGCCCCATGCCCCTACCGGAGTCACCTAGTGCAG” was tested, and the binding signal was 23300 fluorescence intensity (a.u.).
In the case of “AGGAAAAGGGGTTATACACGTGGTGATACTCACTTGACGGCGGAGTCACCTAGTGCAG”, the binding signal is reported as 8040 fluorescence intensity (a.u.).
For “TGGCCCATCAGAGTCAGAGCCGCCGCCGACTCCAGATTCCCGGAGTCACCTAGTGCAG”, the binding signal was 3220 fluorescence intensity (a.u.).
With “AGAGAGAGAGAGAGAGAGAGAGAGCTCAGGATCGACGAGACGGAGTCACCTAGTGCAG” the binding signal was 16900 fluorescence intensity (a.u.).
For “ATCGGGCTCCGCCACTGGATGTGGCTGAAAATATTTGACGCGGAGTCACCTAGTGCAG”, the binding signal was 3600 fluorescence intensity (a.u.).
With “ATATGGCCTTCGGTGGTATCCACGTAGAGCTTTACGTTAACGGAGTCACCTAGTGCAG” the binding signal was 4810 fluorescence intensity (a.u.).
With “TAGCAAGAACGCCTCGTTTCATAGCATATGCATTTGTCTGCGGAGTCACCTAGTGCAG” the binding signal was 23200 fluorescence intensity (a.u.).
In the case of “TCTCGCTAACGCCTATAGTCCATGACGTTGTCAGCCGTCCCGGAGTCACCTAGTGCAG”, the binding signal is reported as 6100 fluorescence intensity (a.u.).
With “CGATTTGATTCGCTGCTGACGTGGCACCCACCGCGTAAAACGGAGTCACCTAGTGCAG” the binding signal was 5770 fluorescence intensity (a.u.).
With “TCTTTCTGCACTTTCTCTGAACGTGGATAAGACATAACCGCGGAGTCACCTAGTGCAG” the binding signal was 8130 fluorescence intensity (a.u.).
“TGACGCGCCGGCCGGTCCAGCCTCCACGCGAGCAGCGGGTCGGAGTCACCTAGTGCAG” was tested, and the binding signal was 5000 fluorescence intensity (a.u.).
In the case of “CCTGGAACGCCTTCGTCTACATCATCGACGGCGAGGGCGTCGGAGTCACCTAGTGCAG”, the binding signal is reported as 5970 fluorescence intensity (a.u.).
With “GAGTGAGTGGTCACGTTACGTCACGTCACGAAGTGTGGGCCGGAGTCACCTAGTGCAG” the binding signal was 11800 fluorescence intensity (a.u.).
In the case of “AGTAGAGAGATCTTGACAAAGTCATCGGTGATGAAGTCGACGGAGTCACCTAGTGCAG”, the binding signal is reported as 3570 fluorescence intensity (a.u.).
With “CCTCTCTTATCCTCTCCTCCACGGCTCCACGTCTATTCTCCGGAGTCACCTAGTGCAG” the binding signal was 4400 fluorescence intensity (a.u.).
In the case of “TTATGGGTGGAGTTGGCGGCAGCAACGAACCTCGTGTCATCGGAGTCACCTAGTGCAG”, the binding signal is reported as 3850 fluorescence intensity (a.u.).
With “TTGATATACCTGTCAGCATGCAGCATGCTATCTCAGTCTTCGGAGTCACCTAGTGCAG” the binding signal was 4360 fluorescence intensity (a.u.).
For “CGGCGATGGAGACGACGAGCTGCCGAGCGTGCGTGCGCGTCGGAGTCACCTAGTGCAG”, the binding signal was 3410 fluorescence intensity (a.u.).
With “ACGGGATACTACCAAACAGAACCATCTGCCATTCCTGTTGCGGAGTCACCTAGTGCAG” the binding signal was 3500 fluorescence intensity (a.u.).
“TTGATACTGTCTTAATAATTTTATCTTGATTGACACGTGGCGGAGTCACCTAGTGCAG” was tested, and the binding signal was 16800 fluorescence intensity (a.u.).
With “CTGCCATTCCAAGTAAAAGGTGGTGAATGGGAAATTGACACGGAGTCACCTAGTGCAG” the binding signal was 3500 fluorescence intensity (a.u.).
With “TTTGAGGTTTGACAAAATAAAACTCACATGGTGACATGGACGGAGTCACCTAGTGCAG” the binding signal was 5340 fluorescence intensity (a.u.).
In the case of “GTTATTCATCAGGAATTCTGTGGCATGTTTGATTAGTTACCGGAGTCACCTAGTGCAG”, the binding signal is reported as 3760 fluorescence intensity (a.u.).
For “CTCATCCAAACGCCGCCACCCTCGTGGATGCAACGAGCACCGGAGTCACCTAGTGCAG”, the binding signal was 21900 fluorescence intensity (a.u.).
In the case of “CCTTACTCCTCGTCTGCAGCCGCCAACACGTACGATTACACGGAGTCACCTAGTGCAG”, the binding signal is reported as 3940 fluorescence intensity (a.u.).
For “CACCAATGGGCCGTACATCCAGCTAGCTCATTGACGCATCCGGAGTCACCTAGTGCAG”, the binding signal was 3300 fluorescence intensity (a.u.).
With “CACTTCACCTTTTATCATAATGAAGCTCTTCCTCCTCCTTCGGAGTCACCTAGTGCAG” the binding signal was 3440 fluorescence intensity (a.u.).
In the case of “CCAAACCCATCCGCTGTTGAGCCCTCCACGTCAGCGCCTCCGGAGTCACCTAGTGCAG”, the binding signal is reported as 25100 fluorescence intensity (a.u.).
For “TCAGCCTCAGTACCCACCACCTCCACGCTCGCGCCGTCGGCGGAGTCACCTAGTGCAG”, the binding signal was 3390 fluorescence intensity (a.u.).
In the case of “TATACGAGAAGTAACCACCCCTCATGCAAGTGGTAATTTCCGGAGTCACCTAGTGCAG”, the binding signal is reported as 12800 fluorescence intensity (a.u.).
“ATCCTACTGCAAATCAAAGGGCTGCCAATTTGCCAAATCACGGAGTCACCTAGTGCAG” was tested, and the binding signal was 31600 fluorescence intensity (a.u.).
“CAGCCGCCCGGCGCGCGCGTCACCGTCCGCAACCGCCACCCGGAGTCACCTAGTGCAG” was tested, and the binding signal was 5140 fluorescence intensity (a.u.).
In the case of “GTCATCCTAGCAGCCAAAATGATGTGGCTACCCCAGACCCCGGAGTCACCTAGTGCAG”, the binding signal is reported as 5150 fluorescence intensity (a.u.).
In the case of “AGCATTCAATGGTCATTCACTCGTCCTTGCTGACTTGCTGCGGAGTCACCTAGTGCAG”, the binding signal is reported as 4040 fluorescence intensity (a.u.).
“GGAGAATTCTCTGTTGCATCGTTGACAGACGTGTATTCCTCGGAGTCACCTAGTGCAG” was tested, and the binding signal was 5050 fluorescence intensity (a.u.).
